In patent US20190374627A1, “TARGET PEPTIDES FOR CANCER THERAPY AND DIAGNOSTICS” (priority 2016, published 2019):

Columns and labels:
Design in all cases: key: The presence of phosphopeptides in previously analyzed samples including leukemia, colorectal cancer, melanoma, ovarian cancer, breast cancer, and esophageal cancer is indicated by ✓
leukemia = assay: Presence of the phosphopeptide in previously analyzed leukemia samples
melanoma = assay: Presence of the phosphopeptide in previously analyzed melanoma samples
colorectal cancer = assay: Presence of the phosphopeptide in previously analyzed colorectal cancer samples

Substance	Leukemia (leukemia)	Melanoma (melanoma)	Colorectal (colorectal cancer)
93 (GPRSASLLSL; (6)...(6) The amino acid at this position is optionally phosphorylated; listed as Homo sapiens) [compound 93]	✓		
100 (KPRPPPLSP; (8)...(8) The amino acid at this position is optionally phosphorylated; listed as Homo sapiens) [compound 100]		✓	✓
121 (RKLSVILIL; (4)...(4) The amino acid at this position is optionally phosphorylated; listed as Homo sapiens) [compound 121]		✓	✓
145 (RPKSVDFDSL; (4)...(4) The amino acid at this position is optionally phosphorylated; listed as Homo sapiens) [compound 145]		✓	✓
170 (RPRSISVEEF; (4)...(4) The amino acid at this position is optionally phosphorylated; listed as Homo sapiens) [compound 170]		✓	✓
178 (RPRSPPPRAP; (4)...(4) The amino acid at this position is optionally phosphorylated; listed as Homo sapiens) [compound 178]		✓	✓
184 (RPRSPTGPSNSF; (6)...(6) The amino acid at this position is optionally phosphorylated; listed as Homo sapiens) [compound 184]		✓	✓
235 (KRFSFKKSF; (4)...(4) The amino acid at this position is optionally phosphorylated; listed as Homo sapiens) [compound 235]		✓	✓
236 (KRFSGTVRL; (4)...(4) The amino acid at this position is optionally phosphorylated; listed as Homo sapiens) [compound 236]		✓	✓
240 (KRMSPKPEL; (4)...(4) The amino acid at this position is optionally phosphorylated; listed as Homo sapiens) [compound 240]		✓	✓
263 (RRLSADIRL; (4)...(4) The amino acid at this position is optionally phosphorylated; listed as Homo sapiens) [compound 263]		✓	✓
277 (RRSSFLQVF; (4)...(4) The amino acid at this position is optionally phosphorylated; listed as Homo sapiens) [compound 277]		✓	✓
298 (ATYTPQAPK; (4)...(4) The amino acid at this position is optionally phosphorylated; listed as Homo sapiens) [compound 298]		✓	
300 (FRYSGKTEY; (4)...(4) The amino acid at this position is optionally phosphorylated; listed as Homo sapiens) [compound 300]		✓	
302 (IISSPLTGK; (4)...(4) The amino acid at this position is optionally phosphorylated; listed as Homo sapiens) [compound 302]		✓	
306 (KLPDSPALAK; (5)...(5) The amino acid at this position is optionally phosphorylated; listed as Homo sapiens) [compound 306]		✓	
307 (KLPDSPALAKK; (5)...(5) The amino acid at this position is optionally phosphorylated; listed as Homo sapiens) [compound 307]		✓	
310 (KMPTTPVKAK; (5)...(5) The amino acid at this position is optionally phosphorylated; listed as Homo sapiens) [compound 310]		✓	✓
311 (KRASVFVKL; (4)...(4) The amino acid at this position is optionally phosphorylated; listed as Homo sapiens) [compound 311]		✓	
313 (KVQSLRRAL; (4)...(4) The amino acid at this position is optionally phosphorylated; listed as Homo sapiens) [compound 313]		✓	✓
314 (MTRSPPRVSK; (4)...(4) The amino acid at this position is optionally phosphorylated; listed as Homo sapiens) [compound 314]		✓	

Substance	Leukemia (leukemia)	Melanoma (melanoma)	Colorectal (colorectal cancer)
317 (RIYQYIQ; (5)...(5) The amino acid at this position is optionally phosphorylated; listed as Homo sapiens) [compound 317]		✓	✓
318 (RIYQYIQSR; (5)...(5) The amino acid at this position is optionally phosphorylated; listed as Homo sapiens) [compound 318]		✓	✓
319 (RIYQYIQSRF; (5)...(5) The amino acid at this position is optionally phosphorylated; listed as Homo sapiens) [compound 319]		✓	✓
321 (RLLDRSPSRSAK; (8)...(8) The amino acid at this position is optionally phosphorylated; listed as Homo sapiens) [compound 321]		✓	
323 (RLSSPVLHR; (4)...(4) The amino acid at this position is optionally phosphorylated; listed as Homo sapiens) [compound 323]		✓	
324 (RSLSVEIVY; (4)...(4) The amino acid at this position is optionally phosphorylated; listed as Homo sapiens) [compound 324]		✓	
325 (RSYSRSFSR; (4)...(4) The amino acid at this position is optionally phosphorylated; listed as Homo sapiens) [compound 325]		✓	
326 (RSYSYPRQK; (4)...(4) The amino acid at this position is optionally phosphorylated; listed as Homo sapiens) [compound 326]		✓	
327 (RTASFAVRK; (4)...(4) The amino acid at this position is optionally phosphorylated; listed as Homo sapiens) [compound 327]		✓	
330 (RVASPTSGVK; (4)...(4) The amino acid at this position is optionally phosphorylated; listed as Homo sapiens) [compound 330]		✓	✓
331 (RVKTPTSQSYR; (4)...(4) The amino acid at this position is optionally phosphorylated; listed as Homo sapiens) [compound 331]		✓	
332 (RVLSPLIIK; (4)...(4) The amino acid at this position is optionally phosphorylated; listed as Homo sapiens) [compound 332]		✓	✓
333 (RVRQSPLATR; (5)...(5) The amino acid at this position is optionally phosphorylated; listed as Homo sapiens) [compound 333]		✓	✓
335 (SVKSPVTVK; (4)...(4) The amino acid at this position is optionally phosphorylated; listed as Homo sapiens) [compound 335]		✓	✓
336 (SVRRSVLMK; (5)...(5) The amino acid at this position is optionally phosphorylated; listed as Homo sapiens) [compound 336]		✓	✓
337 (YIQSRF; (1)...(1) The amino acid at this position is optionally phosphorylated; listed as Homo sapiens) [compound 337]		✓	
341 (ATAGPRLGW; (2)...(2) The amino acid at this position is optionally phosphorylated; listed as Homo sapiens) [compound 341]		✓	
350 (KEMSPTRQL; (4)...(4) The amino acid at this position is optionally phosphorylated; listed as Homo sapiens) [compound 350]		✓	✓
366 (RQKSPLFQF; (4)...(4) The amino acid at this position is optionally phosphorylated; listed as Homo sapiens) [compound 366]		✓	
378 (RRPSYRKIL; (4)...(4) The amino acid at this position is optionally phosphorylated; listed as Homo sapiens) [compound 378]		✓	
388 (SIDSPQKL; (4)...(4) The amino acid at this position is optionally phosphorylated; listed as Homo sapiens) [compound 388]		✓	✓
